This is one part of the list.

Amino acid sequences for entries named in this document (tags omitted). A change or cut given only in a name is not applied to a line headed by its entry.
UniProt Q15170: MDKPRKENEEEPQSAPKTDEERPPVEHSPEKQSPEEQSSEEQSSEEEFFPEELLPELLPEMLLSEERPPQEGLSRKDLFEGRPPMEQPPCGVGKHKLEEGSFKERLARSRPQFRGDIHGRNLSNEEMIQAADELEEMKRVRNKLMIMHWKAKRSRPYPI
UniProt Q9H5L6: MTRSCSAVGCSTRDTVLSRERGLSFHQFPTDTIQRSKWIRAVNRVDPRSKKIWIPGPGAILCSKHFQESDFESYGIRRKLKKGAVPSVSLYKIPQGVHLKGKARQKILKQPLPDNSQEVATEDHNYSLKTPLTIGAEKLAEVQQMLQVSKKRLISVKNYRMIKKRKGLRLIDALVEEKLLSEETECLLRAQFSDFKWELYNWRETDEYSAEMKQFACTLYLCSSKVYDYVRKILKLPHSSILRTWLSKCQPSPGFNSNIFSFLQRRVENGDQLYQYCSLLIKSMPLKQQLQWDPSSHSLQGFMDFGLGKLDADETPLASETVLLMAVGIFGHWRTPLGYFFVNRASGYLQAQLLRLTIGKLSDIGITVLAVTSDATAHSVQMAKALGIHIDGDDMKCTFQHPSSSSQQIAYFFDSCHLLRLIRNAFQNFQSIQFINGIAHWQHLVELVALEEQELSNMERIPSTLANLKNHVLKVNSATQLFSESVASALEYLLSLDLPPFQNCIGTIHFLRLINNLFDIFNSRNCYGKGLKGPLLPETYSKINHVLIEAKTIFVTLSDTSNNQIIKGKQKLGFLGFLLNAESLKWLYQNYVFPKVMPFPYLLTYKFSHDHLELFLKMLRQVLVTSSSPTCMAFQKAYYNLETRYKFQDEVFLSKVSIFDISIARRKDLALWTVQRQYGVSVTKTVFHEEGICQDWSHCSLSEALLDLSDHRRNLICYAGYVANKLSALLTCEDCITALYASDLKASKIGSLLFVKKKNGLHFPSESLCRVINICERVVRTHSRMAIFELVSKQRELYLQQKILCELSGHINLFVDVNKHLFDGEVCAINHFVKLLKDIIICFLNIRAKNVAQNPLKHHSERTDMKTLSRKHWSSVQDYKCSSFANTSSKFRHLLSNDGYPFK
UniProt Q96CP7: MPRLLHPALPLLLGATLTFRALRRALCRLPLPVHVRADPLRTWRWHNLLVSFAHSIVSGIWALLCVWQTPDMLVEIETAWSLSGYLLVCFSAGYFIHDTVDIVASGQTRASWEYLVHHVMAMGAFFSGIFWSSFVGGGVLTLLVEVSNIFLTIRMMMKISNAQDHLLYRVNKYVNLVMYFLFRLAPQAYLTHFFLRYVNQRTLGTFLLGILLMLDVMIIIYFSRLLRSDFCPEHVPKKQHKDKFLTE
UniProt Q8NFU7: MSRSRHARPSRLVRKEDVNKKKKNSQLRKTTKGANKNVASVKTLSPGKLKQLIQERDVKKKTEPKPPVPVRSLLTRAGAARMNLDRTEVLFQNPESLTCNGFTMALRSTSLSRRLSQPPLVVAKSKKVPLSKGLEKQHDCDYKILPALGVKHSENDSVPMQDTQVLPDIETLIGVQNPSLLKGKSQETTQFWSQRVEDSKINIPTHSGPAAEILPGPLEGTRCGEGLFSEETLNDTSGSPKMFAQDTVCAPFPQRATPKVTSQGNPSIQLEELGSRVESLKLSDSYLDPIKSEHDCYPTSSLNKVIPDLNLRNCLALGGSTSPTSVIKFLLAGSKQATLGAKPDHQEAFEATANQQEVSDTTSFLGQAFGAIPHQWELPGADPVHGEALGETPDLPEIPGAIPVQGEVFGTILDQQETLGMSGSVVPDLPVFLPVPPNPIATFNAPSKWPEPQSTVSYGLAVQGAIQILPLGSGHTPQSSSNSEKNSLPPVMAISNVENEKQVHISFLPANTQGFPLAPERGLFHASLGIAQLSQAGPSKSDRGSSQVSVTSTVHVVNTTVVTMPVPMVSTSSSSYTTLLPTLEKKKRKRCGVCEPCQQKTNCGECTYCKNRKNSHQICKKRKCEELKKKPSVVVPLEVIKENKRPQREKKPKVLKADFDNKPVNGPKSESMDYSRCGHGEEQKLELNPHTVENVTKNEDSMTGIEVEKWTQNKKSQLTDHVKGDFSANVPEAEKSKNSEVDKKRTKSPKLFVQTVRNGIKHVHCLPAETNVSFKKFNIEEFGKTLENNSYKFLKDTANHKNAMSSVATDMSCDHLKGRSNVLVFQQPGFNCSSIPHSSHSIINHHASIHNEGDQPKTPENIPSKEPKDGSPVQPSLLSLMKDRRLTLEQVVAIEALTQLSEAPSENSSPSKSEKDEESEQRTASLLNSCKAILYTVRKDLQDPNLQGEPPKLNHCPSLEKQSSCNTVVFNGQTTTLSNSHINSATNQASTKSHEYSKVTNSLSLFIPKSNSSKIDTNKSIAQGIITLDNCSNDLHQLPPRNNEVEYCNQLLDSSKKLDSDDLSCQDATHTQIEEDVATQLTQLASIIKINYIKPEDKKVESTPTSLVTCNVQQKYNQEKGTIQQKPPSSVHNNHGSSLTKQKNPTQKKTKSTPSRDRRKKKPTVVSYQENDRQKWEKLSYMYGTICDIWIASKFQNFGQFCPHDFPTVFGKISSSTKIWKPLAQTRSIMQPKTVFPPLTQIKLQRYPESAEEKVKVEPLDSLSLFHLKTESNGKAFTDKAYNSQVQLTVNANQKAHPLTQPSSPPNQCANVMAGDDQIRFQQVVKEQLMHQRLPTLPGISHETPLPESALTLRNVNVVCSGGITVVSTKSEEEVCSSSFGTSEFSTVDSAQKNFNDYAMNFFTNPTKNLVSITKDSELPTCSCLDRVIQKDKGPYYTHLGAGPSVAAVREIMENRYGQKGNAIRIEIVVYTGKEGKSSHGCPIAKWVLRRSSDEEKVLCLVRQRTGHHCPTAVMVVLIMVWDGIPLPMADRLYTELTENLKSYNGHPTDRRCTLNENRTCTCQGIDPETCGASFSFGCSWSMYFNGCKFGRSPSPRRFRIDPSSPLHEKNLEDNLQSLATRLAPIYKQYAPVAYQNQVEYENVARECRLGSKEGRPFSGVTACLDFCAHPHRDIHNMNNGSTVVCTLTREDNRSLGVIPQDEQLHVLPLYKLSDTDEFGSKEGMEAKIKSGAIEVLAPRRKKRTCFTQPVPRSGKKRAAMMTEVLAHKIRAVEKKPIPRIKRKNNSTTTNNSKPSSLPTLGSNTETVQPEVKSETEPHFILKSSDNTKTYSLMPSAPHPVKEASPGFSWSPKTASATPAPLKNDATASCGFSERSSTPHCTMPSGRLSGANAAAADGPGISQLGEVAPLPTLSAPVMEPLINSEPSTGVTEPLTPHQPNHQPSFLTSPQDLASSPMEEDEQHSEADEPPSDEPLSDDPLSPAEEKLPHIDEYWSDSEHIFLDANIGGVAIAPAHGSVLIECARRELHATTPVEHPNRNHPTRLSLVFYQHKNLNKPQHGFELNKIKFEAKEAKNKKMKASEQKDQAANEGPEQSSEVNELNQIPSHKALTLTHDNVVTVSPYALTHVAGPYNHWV
UniProt A6NFQ2: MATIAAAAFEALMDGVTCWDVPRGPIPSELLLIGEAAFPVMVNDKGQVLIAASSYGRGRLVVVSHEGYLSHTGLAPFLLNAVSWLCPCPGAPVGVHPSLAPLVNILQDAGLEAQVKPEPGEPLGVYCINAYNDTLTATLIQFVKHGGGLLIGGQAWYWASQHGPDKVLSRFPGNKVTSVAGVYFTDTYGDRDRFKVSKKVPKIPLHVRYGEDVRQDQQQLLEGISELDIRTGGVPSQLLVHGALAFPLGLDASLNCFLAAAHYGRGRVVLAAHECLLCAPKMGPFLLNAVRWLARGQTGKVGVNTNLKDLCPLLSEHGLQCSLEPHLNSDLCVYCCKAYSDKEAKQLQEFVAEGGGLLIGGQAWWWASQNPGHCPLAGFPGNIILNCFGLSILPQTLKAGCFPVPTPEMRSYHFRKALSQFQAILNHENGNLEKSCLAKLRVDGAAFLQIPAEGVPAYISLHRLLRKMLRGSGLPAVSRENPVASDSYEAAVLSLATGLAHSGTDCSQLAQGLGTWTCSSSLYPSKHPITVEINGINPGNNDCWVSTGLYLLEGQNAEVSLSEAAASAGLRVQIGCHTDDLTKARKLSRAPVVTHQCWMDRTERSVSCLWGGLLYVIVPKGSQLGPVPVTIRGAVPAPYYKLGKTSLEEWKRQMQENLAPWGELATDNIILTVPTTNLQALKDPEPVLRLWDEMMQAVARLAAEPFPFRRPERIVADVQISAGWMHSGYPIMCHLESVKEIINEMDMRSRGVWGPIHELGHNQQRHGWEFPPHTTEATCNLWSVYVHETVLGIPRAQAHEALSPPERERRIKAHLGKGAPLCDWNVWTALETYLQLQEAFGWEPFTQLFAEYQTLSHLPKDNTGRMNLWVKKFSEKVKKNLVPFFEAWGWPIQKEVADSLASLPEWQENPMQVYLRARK
UniProt Q96CG3: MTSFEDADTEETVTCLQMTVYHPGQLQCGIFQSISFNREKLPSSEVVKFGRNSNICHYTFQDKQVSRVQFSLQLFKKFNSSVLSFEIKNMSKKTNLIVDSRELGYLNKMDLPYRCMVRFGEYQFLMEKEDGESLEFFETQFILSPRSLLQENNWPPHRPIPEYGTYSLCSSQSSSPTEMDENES
UniProt Q12800: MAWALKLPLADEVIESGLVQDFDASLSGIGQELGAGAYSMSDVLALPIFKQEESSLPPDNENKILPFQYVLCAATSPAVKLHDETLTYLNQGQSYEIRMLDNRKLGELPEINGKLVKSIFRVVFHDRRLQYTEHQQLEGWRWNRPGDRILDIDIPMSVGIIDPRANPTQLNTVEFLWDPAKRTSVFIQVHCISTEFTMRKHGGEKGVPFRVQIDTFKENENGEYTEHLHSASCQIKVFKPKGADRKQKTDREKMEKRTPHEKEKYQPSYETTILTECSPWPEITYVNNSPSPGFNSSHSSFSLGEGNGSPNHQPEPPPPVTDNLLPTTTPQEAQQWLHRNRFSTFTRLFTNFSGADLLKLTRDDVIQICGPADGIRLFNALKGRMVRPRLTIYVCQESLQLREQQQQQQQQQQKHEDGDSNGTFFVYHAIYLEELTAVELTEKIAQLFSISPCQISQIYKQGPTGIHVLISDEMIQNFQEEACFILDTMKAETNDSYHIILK
UniProt P15923: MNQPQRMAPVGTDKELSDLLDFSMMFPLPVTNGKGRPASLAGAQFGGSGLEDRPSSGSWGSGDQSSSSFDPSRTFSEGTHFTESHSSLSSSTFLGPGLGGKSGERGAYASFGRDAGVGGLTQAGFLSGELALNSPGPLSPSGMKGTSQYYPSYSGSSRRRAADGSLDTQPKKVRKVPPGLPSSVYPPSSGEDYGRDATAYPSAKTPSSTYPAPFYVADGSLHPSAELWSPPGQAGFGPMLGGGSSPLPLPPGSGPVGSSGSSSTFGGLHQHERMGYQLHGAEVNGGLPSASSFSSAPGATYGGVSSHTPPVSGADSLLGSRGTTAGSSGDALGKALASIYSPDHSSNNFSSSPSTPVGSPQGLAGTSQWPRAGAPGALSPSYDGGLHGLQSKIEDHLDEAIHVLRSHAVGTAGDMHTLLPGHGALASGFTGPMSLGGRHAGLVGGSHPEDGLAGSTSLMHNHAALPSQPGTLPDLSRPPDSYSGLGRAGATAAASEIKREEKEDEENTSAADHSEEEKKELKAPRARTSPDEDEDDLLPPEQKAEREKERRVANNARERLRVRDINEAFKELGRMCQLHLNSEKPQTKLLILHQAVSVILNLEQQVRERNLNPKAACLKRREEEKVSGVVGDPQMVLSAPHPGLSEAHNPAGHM
UniProt O43422: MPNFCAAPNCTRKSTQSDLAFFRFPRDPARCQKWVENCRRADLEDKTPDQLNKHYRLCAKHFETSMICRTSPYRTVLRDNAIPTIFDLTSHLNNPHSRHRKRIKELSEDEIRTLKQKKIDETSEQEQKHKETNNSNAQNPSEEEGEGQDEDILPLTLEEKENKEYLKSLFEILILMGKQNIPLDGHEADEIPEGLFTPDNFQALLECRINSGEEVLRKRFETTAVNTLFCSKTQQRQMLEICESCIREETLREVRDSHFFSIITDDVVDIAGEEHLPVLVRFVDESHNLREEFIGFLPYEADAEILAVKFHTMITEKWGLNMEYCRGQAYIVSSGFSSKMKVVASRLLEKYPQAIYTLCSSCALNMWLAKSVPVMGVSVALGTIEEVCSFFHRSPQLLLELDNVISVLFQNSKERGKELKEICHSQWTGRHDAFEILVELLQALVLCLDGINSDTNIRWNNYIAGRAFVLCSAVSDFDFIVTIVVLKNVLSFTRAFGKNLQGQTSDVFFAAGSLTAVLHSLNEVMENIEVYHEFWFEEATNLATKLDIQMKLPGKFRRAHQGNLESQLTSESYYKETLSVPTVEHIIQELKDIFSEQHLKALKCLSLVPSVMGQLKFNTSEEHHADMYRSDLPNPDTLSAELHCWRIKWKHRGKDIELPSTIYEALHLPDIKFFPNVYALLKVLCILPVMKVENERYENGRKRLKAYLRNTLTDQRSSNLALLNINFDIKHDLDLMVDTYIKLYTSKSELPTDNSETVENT

Here are results for 26 targets from the supplement of paper PMC10849652.

Compound in the assay: c1ccc([C@@H]2C[C@H]2NC2CCNCC2)cc1
The assay is described as follows: log2 fold change, soluble protein after heating vs DMSO (PISA); higher = thermal stabilisation; K562 cells, 10 uM, 30 min; active = over 0.2 and 3.5 SD of the protein, either way, in both replicates (recomputed). In short, it runs like this: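 K562 cells at 2×10^6 cells/mL were given 10 μM compound for 30 min. Aliquots then went through 3 min of heating across 48°C-58°C, were pooled, and were extracted in PBS with 0.5% NP-40 at 4°C, and the supernatant after 21,000xg for 90 min was quantified by TMTpro 16plex LC-MS/MS with channel sums equalised. Thermal stability relative to control samples, from duplicates, is given as log2 fold change.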
Take TDRD15 (UniProt B5MCY1): the log2 fold change was inactive: 0.079. Next, TCEAL1 isoform 2 (UniProt Q15170): inactive: 0.056; THAP9 (UniProt Q9H5L6): inactive: -0.046. Next, TCF4 isoform 3 (UniProt P15884): inactive: -0.242.

Turning to TFDP2 (UniProt Q14188), the log2 fold change is inactive: 0.178. Take TLCD1 (UniProt Q96CP7): the log2 fold change was inactive: -0.078. Next, TENM4 (UniProt Q6N022): inactive: -0.078; TET1 (UniProt Q8NFU7): inactive: -0.019; TCAF2 (UniProt A6NFQ2): inactive: -0.123. Consider TCF25 (UniProt Q9BQ70), for which the log2 fold change was inactive: 0.011.

Turning to TGDS (UniProt O95455), the log2 fold change was inactive: 0.109. Next, TLE3 (UniProt Q04726): inactive: 0.083. Next, THOC7 (UniProt Q6I9Y2): inactive: 0.022; TDP1 (UniProt Q9NUW8): inactive: 0.054. For the target TBC1D25 (UniProt Q3MII6), the log2 fold change is inactive: -0.058. Next, TIFA (UniProt Q96CG3): inactive: 0.101. Next, TCIRG1 (UniProt Q13488): inactive: -0.167; TGM2 (UniProt A2A299): inactive: -0.014; TCF20 (UniProt Q9UGU0): inactive: 0.236. Next, TBC1D20 isoform 3 (UniProt Q96BZ9): active: -0.403; TFCP2 (UniProt Q12800): inactive: -0.008; TERF2 (UniProt Q15554): inactive: 0.019. Consider TCF3 isoform 2 (UniProt P15923), for which the log2 fold change is inactive: -0.158.

In the case of THAP12 (UniProt O43422), the log2 fold change was inactive: 0.152.

Take TDRD7 (UniProt Q8NHU6): the log2 fold change is inactive: 0.023. On to TFIP11 (UniProt Q9UBB9), for which the log2 fold change was inactive: 0.043.
